Assay results taken from article PMC12040169 (PLOS Biology, 2025).
The other results are listed elsewhere or left out.

Tested on: T1, CTL2-GFP (C. trachomatis L2/434/Bu, GFP-expressing)
T1 construct: L2/434/Bu, GFP-expressing
Parameters: species or system HeLa; Intracellular C. trachomatis growth in HeLa cells, bulk GFP fluorescence relative to DMSO
Settings: bulk GFP, single well; 28.5 h, 10 µM; inhibitor

Row | SMILES | % of control remaining [%]
1 | COc1cccc(COc2cnc(-c3ccccc3)c(N)n2)c1OC [CBK145066] | 100.485
2 | O=C(Nc1ncc(Cc2ccc(F)cc2)s1)c1csc2c1CCCC2 [CBK300489] | 83.1825
3 | CCC(CN1CCCC1)NC(=O)Cc1c(C)[nH]c2ccc(F)cc12 (stereo not shown) [CBK282751] | 145.02
4 | COc1ccc(-c2csc(NS(=O)(=O)c3c(C)cc(Cl)cc3Cl)n2)cc1 [CBK000814] | 104.484
5 | COc1ccc(/C=N/NC(=O)CCn2c3ccccc3c3ccccc32)cc1O [CBK262343] | 109.022
6 | CC1(C)O[C@@H]2O[C@@H](C(O)CNC(=O)c3ccccc3)[C@@H](NC(=O)c3ccccc3)[C@@H]2O1 (stereo partly shown) [CBK008727] | 95.8925
7 | C[C@H](c1ccccc1)n1c(=O)[nH]c2ncc(-c3ccc(C(N)=O)cc3)nc21 [CBK064377] | 95.1137
8 | CN(C)CCCNC(=O)c1cccc(S(=O)(=O)N2CCCCC2)c1 [CBK304314C] | 120.983
9 | Cc1cccc(CN(CCCN(C)C)Cc2ccc(C)o2)n1 [CBK283187] | 108.078
10 | COc1ccc(NC(=O)CC(CN2CCN(c3ccc(Cl)cc3)CC2)C(=O)O)cc1 (stereo not shown) [CBK286831] | 138.442
11 | Cn1c(=O)oc2ccc(C(=O)N3CCn4nc(CO)cc4C3)cc21 [CBK306821] | 132.275
12 | CCOCCCn1c(SC(C)C#N)nc2ccc(Br)cc2c1=O (stereo not shown) [CBK306084] | 82.2383
13 | COc1ccc(-c2nn(CCC(=O)O)cc2/C=C2\SC(=S)NC2=O)cc1OC [CBK265318] | 105.169
14 | COc1cc(NC(=O)c2ccc(-c3cc4ccccc4oc3=O)cc2)ccc1NC(=O)C(C)C [CBK268601] | 91.0288
15 | S=c1[nH]cnc2c1[nH]c1ccc(Br)cc12 [CBK288487] | 78.7357
16 | CC1CCCN(C(=O)CCn2c(-c3ccccn3)cc3cccnc32)C1 (stereo not shown) [CBK282154] | 126.866
17 | CN1CCN(c2nc(NS(=O)(=O)c3cccc(C(F)(F)F)c3)cc3ccccc23)CC1 [CBK200013C] | 90.5504
18 | O=C(Cc1ccsc1)N1CCN(c2ncccn2)CC1 [CBK144525] | 109.257
19 | COc1ccnc(N2CCN(Cc3cncn3C3CCCCC3)CC2)n1 [CBK306925] | 111.579
20 | CC(=O)NC(c1nccs1)C1CCN(C(=O)C2CC2C)CC1 (stereo not shown) [CBK282232] | 128.688
21 | O=C(Nc1ccc2nc(-c3ccc(-c4nc5ccc(NC(=O)c6cccc7ccccc67)cc5[nH]4)cc3)[nH]c2c1)c1cccc2ccccc12 [CBK261160] | 92.7276
22 | CC1(NC(=O)CC[N+]23CCN(CC2)CC3)CS(=O)(=O)CC1S(=O)(=O)[O-] (stereo not shown) [CBK262518] | 121.301
23 | Cc1onc(-c2ccccc2)c1C(=O)N1CCC1 [CBK160450] | 155.017
24 | COc1cc(Nc2cc(-c3cccc(N)c3)ncn2)cc(OC)c1OC [CBK037713] | 131.028
25 | CCOc1ccc(CCC(=O)N2CCCc3c(cnn3C)C2)cc1 [CBK285276] | 142.214
26 | Cc1cc(Cl)ccc1CNS(=O)(=O)c1cccs1 [CBK044714] | 97.1998

Row | SMILES | % of control remaining [%]
27 | COc1ccc(CCN2CCC(Oc3nccnc3OCc3cccnc3)CC2)cc1OC [CBK083179T] | 112.552
28 | Cc1nn(C)c(N2CCNCC2)c1NC(=O)c1cc(-c2ccccc2)oc1C [CBK050356T] | 106.738
29 | CCCc1ccc(S(=O)(=O)Nc2cccc(C(=O)Nc3ccc(F)cc3)c2)cc1 [CBK038978] | 78.6614
30 | Cc1cn(CC(=O)N2CCC(Cn3cncn3)(C3CCCCC3)CC2)c(=O)[nH]c1=O [CBK136800] | 125.544
31 | COc1ncc(-c2nccnc2OCCOc2ccccc2)c(OC)n1 [CBK106752] | 107.961
32 | CCOc1ccccc1-c1nnc(SCC(=O)NC2CCCCC2)o1 [CBK268728] | 49.214
33 | O=C(O)c1cccc(NC(=O)c2cccc(S(=O)(=O)Nc3ccc(Cl)cc3)c2)c1 [CBK261261] | 107.285
34 | COc1ccc(-c2csc(/C(C#N)=C/Nc3ccc(S(=O)(=O)Nc4nccs4)cc3)n2)cc1 [CBK262374] | 20.6436
35 | CN/C(=N\C1CCCCC1)N1CCOCC1 [CBK023800G] | 96.6171
36 | CN1CCN(NC(=O)c2cc(C(=O)c3ccc(Cl)cc3Cl)c[nH]2)CC1 [CBK107420] | 105.368
37 | c1cncc(-c2nccnc2NCC2CC2)c1 [CBK037310] | 125.914
38 | CCOC(=O)c1csc(C2CCCN2C(=O)c2ccsc2)n1 (stereo not shown) [CBK304125] | 151.766
39 | Cc1cc(C)n2nc(C(=O)N/N=C/c3ccc(O)cc3)nc2n1 [CBK261765] | 108.855
40 | CC(C(=O)Nc1ccc(F)c(F)c1)n1cc([N+](=O)[O-])cn1 (stereo not shown) [CBK268771] | 105.531
41 | CN(C)c1cccc(C2CCCN2c2nc3c(cnn3C)c(=O)[nH]2)c1 (stereo not shown) [CBK305220] | 132.935
42 | COc1ccc(S(=O)(=O)NC[C@H]2C[C@@H]3CC[N@]2C[C@@H]3CN2CCOCC2)cc1 [CBK288761] | 122.672
43 | O=C(O)CCn1oc(=O)c2ccccc21 [CBK020340] | 102.296
44 | O=C(Nc1ccc(Br)cc1)c1c(O)n2c3c(cccc3c1=O)CCC2 [CBK291207] | 86.2047
45 | CNC(=O)c1ccc(CN(Cc2noc(C(C)C)n2)C2CC2)cc1 [CBK304084] | 126.228
46 | O=C(N[C@H]1CCN2C(=O)c3cc(-c4ccccc4)ccc3NC(=O)[C@H]12)c1cccs1 [CBK289350] | 133.963
47 | CCC(=O)N1CCCc2cc(C(O)CN3CCC(C)CC3)ccc21 (stereo not shown) [CBK282144] | 127.03
48 | CN1CCN(C(=O)CC[C@@H]2CNC(=O)[C@@H]3C[C@H](NC(=O)c4ccccc4)CN23)CC1 [CBK289014] | 149.299
49 | Nc1cc2c(ncn2[C@@H]2C[C@@H](O)[C@@H](CO)O2)c(=O)[nH]1 [CBK201196] | 173.473
50 | N#Cc1cc(F)cc(F)c1NC(=O)c1cccs1 [CBK066832] | 97.3824
51 | O=C(Cc1c[nH]c2ccccc12)N1CCC(F)CC1 [CBK200274] | 77.2827
52 | CCCCC1=NN2C(=N)/C(=C/c3cn(Cc4ccc([N+](=O)[O-])cc4)c4ccccc34)C(=O)N=C2S1 [CBK264320] | 132.279

Taken from above:
In % of control remaining [%], CC(C(=O)Nc1ccc(F)c(F)c1)n1cc([N+](=O)[O-])cn1 (stereo not shown) [CBK268771] has the entry 105.531
In % of control remaining [%], O=C(N[C@H]1CCN2C(=O)c3cc(-c4ccccc4)ccc3NC(=O)[C@H]12)c1cccs1 [CBK289350] has the entry 133.963
In % of control remaining [%], CN/C(=N\C1CCCCC1)N1CCOCC1 [CBK023800G] has the entry 96.6171
In % of control remaining [%], COc1ncc(-c2nccnc2OCCOc2ccccc2)c(OC)n1 [CBK106752] has the entry 107.961
In % of control remaining [%], CN(C)c1cccc(C2CCCN2c2nc3c(cnn3C)c(=O)[nH]2)c1 (stereo not shown) [CBK305220] has the entry 132.935

(further entries)

Row | SMILES | % of control remaining [%]
53 | Cc1ccc(S(=O)(=O)NCC2CCC(C(=O)Oc3ccc4ccc(=O)oc4c3)CC2)cc1 (stereo not shown) [CBK093519] | 113.404
54 | Cc1cc(CC(=O)N2CCN(CCNC(=O)C3CCCC3)CC2)no1 [CBK306376] | 123.739
55 | CC(C)OC(=O)N1CCN(C(=O)c2cn(Cc3cccc(S(C)(=O)=O)c3)nn2)CC1 [CBK160994T] | 132.97
56 | O=C(Cn1c([C@@H]2CCCO2)cc2cccnc21)N1CCCCC1 [CBK282286] | 128.053
57 | Cc1nc(NC(=O)CN2CCN(c3cccc(Cl)c3)CC2)sc1C [CBK305902] | 80.1403
58 | CN(C)c1ccc(Nc2ncnc3c2cnn3CCC#N)cn1 [CBK306231] | 101.519
59 | CCOC(=O)CCNC(=O)c1cncc(-c2ccc(C(=O)N3CCOCC3)cc2)c1 [CBK158645] | 122.672
60 | CC(C)C(=O)N1CC2(CCN(CCc3cccc4ccccc34)CC2)c2ccccc21 [CBK136978] | 93.3247
61 | COc1ccc(F)c(CN2CC3CCCN3C[C@@H]2C)c1 (stereo partly shown) [CBK284549] | 162.202
62 | Cc1cc(C)n(CC(=O)NC(Cc2cccs2)c2nccs2)n1 (stereo not shown) [CBK284686] | 130.474
63 | O=S(=O)(Nc1nnn[nH]1)c1ccc(-c2cc(C(F)(F)F)on2)s1 [CBK062393] | 109.994
64 | Cc1nn(CC(=O)NC2CCC2)c(=O)c2cc3ccsc3n12 [CBK284103] | 98.004
65 | CC[C@H](Cn1ncc2ccccc2c1=O)NC(=O)c1ccc2c(c1)Sc1ccccc1O2 [CBK286173] | 131.341
66 | FC(F)(F)c1ccnc(OCc2cccnc2)n1 [CBK115902] | 105.288
67 | Cc1ccc2nc(-c3ccccc3)cc(C(=O)NCCCn3ccnc3)c2c1 [CBK268526] | 138.892
68 | O=C(O)C1C2C=CC3(CN(C/C=C/c4ccccc4)C(=O)C13)O2 (stereo not shown) [CBK286946] | 125.359
69 | CC(=O)Nc1ccc([C@@H](O)[C@H]2COCC(=O)N2Cc2ccc(C(F)(F)F)cc2)cc1 [CBK289678] | 135.009
70 | COc1cc(C(c2c[nH]c3ccccc23)c2c[nH]c3ccccc23)ccc1OCC(=O)O [CBK265717] | 129.975
71 | CC(C)CC(=O)Nc1nc(OCC(F)(F)F)cnc1-c1ccc(Cl)cc1Cl [CBK145356] | 142.106
72 | CCC(C)c1ccccc1NC(=O)c1cc(=O)[nH]c2ccccc12 (stereo not shown) [CBK297516] | 118.783
73 | Cc1cccc(C)c1NC(=O)Cn1nnc(-c2ccc(CN3CCC(C)CC3)cc2)n1 [CBK121194] | 105.139
74 | O=C1c2ccccc2NC(C(=O)O)(c2ccccc2)N1c1ccccc1Cl (stereo not shown) [CBK287169] | 137.079
75 | COc1ccc(CCCC(=O)NC2CCCCC2C)cc1 (stereo not shown) [CBK026124] | 163.349
76 | O=C(CC1S/C(=N/N=C/c2ccc(-c3cc([N+](=O)[O-])ccc3Cl)o2)NC1=O)Nc1ccccc1 (stereo not shown) [CBK264592] | 121.907
